Library screen at single concentrations

The chains behind the UniProt entries cited, without tags or fusion partners.
UniProt P9WFT3, whole entry: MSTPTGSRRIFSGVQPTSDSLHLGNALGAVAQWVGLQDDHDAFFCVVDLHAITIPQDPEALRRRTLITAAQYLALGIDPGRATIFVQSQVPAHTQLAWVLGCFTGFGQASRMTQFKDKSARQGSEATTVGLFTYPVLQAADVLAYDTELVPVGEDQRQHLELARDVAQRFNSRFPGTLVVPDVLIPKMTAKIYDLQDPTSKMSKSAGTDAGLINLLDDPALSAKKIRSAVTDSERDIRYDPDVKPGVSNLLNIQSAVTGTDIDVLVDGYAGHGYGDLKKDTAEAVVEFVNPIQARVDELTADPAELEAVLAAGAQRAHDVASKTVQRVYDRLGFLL
UniProt P9WPC5, whole entry: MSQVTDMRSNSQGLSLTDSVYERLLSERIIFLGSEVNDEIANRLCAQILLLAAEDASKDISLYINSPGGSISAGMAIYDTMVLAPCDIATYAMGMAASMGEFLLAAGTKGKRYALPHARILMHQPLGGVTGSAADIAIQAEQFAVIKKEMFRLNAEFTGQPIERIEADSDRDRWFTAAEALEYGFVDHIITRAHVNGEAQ
UniProt P9WPC3, whole entry partner: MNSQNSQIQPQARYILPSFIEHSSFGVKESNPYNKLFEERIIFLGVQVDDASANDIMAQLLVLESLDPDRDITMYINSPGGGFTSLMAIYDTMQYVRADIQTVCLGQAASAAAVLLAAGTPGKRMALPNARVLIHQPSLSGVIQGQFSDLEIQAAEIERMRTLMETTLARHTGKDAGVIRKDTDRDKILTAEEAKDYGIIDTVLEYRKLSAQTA

Data taken from ChEMBL document CHEMBL3988442, “University of Dundee, Small-Polar-MMV Screening Library” (2021).

MtTrpRS: 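Tryptophan-tRNA ligase, Mycobacterium tuberculosis (UniProt P9WFT3). Enzyme assay of tryptophanyl-tRNA synthetase; the read-out is not stated. Compounds at 10 µM. Direction is not recorded; retested compounds ran higher, which suggests that high means inhibition. About 65,000 compounds were tested under these conditions; 0.098% (about 64) showed 50% or more at least once.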
ClpP1P2: 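Protease assay of ClpP1P2, read by the AMC dye that it sets free. Target: ClpP1P2, Mycobacterium tuberculosis (UniProt P9WPC5 and UniProt P9WPC3). Concentration: 50 µM. Higher reads as stronger inhibition, judged from the few compounds that gave an IC50. Most other retested compounds had strongly negative values. About 69,000 compounds were tested under these conditions; 0.015% (about 10) showed 50% or more at least once.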

Each number is a percent effect as filed. How 0% and 100% were set is not recorded. Most values in the screen are low, and negative values occur. Compounds were drawn at random from those tested, without regard to their results. A dash means the value is not listed here; it may have been measured.

compound,MtTrpRS,ClpP1P2
Cc1cc(=O)n(CC(=O)Nc2ccc(Cl)cc2)nc1C,1.232%,-11.85%
COCCCSc1ccc(NC(=O)Nc2cn[nH]c2)cc1,8.983%,5.2%
N#Cc1cccnc1NCCNC(=O)N1CCCSCC1,0.2322%,-18.8%
Cc1noc(C)c1CN1CCc2ncnc(-c3cnn(C)c3)c2CC1,-,-7.296%
Cn1ccnc1-c1ccc(NCC2COCCO2)nn1 (stereo not given),-1.027%,-13.33%
Cc1nc(CN2CCN(C(=O)c3sccc3C3CC3)CC2)oc1C,7.774%,-42.29%
CN1CCOC(CNC(=O)CCCOc2ccccc2F)C1 (stereo not given),-2.747%,7.995%
CCCc1nnc(N2CCCC(c3nnc(Cn4ccnc4)n3C)C2)s1 (stereo not given),-3.254%,1.551%
CCC(CC)(CNC(=O)OC(C)(C)C)NC(=O)C1CC1,-4.357%,3.436%
O=C(CN1CCOC(Cn2cncn2)C1)NC(C1CC1)C1CC1 (stereo not given),-1.967%,-4.036%
CSc1nc(N)cc(N2C[C@@H]3CC[C@H](C2)N(Cc2cscn2)C3=O)n1,1.933%,3.083%
Cc1ccsc1CNCc1c(C(C)C)nn(C)c1N1CCOCC1,3.943%,0.7872%
Cc1nc(C2CCN(C(=O)c3cscn3)CC2)c2sccn12,-,21.8%
CNCc1cc(F)ccc1Oc1ccc(Cl)cc1,-,5.431%
Cc1nc(C)n(CC2CCCN2CC(=O)Nc2nncs2)n1 (stereo not given),0.9382%,-8.474%
COc1ccnc(N2CCN(C(=O)c3ccn(C)c(=O)c3)CC2)n1,-0.7524%,-1.637%
COc1nn(C)c2c1CCCN(C(=O)c1ccccc1)C2,-1.501%,1.226%
CN(CCN1CCOCC1)C(=O)C1(c2ccc(F)cc2F)CCC1,-2.981%,2.359%
O=C(Cc1ccccc1)N1CCC(c2nnc(-c3ccccn3)o2)CC1,9.499%,3.819%
CN(C)c1ccccc1C(=O)N1CCOC2(CNCCOC2)C1 (stereo not given),1.377%,-4.68%
O=C(NCC1CCOC1)c1csc(-c2ccc(F)cc2)n1 (stereo not given),-0.9737%,1.242%
O=C1N(Cc2ccc(F)c(F)c2)CCCC12CCN(C1CCCCC1)C2 (stereo not given),-3.909%,-21.47%
CN(C)C(=O)CN1C[C@@H]2CC[C@H](C1)N(Cc1ccc(Cl)cc1Cl)C2,-1.505%,-54.26%
Cc1nn(C)c(Cl)c1C1CCCN1C(=O)c1ccoc1C (stereo not given),-9.644%,-13.18%
COc1ccc2c3c1CN(C(C)=O)CC3=CC(C)(C)CO2,-,-11.12%
O=C(Nc1nnn[nH]1)c1ccc(-n2cccc2)c(F)c1,-2.279%,4.386%
CN(CCCc1nccn1C)C(=O)C1CCN(C(=O)C2CC2)CC1,-1.972%,-7.174%
Cc1nnc(C(C)N2CCCN(Cc3ccc(C#N)cc3)CC2)o1 (stereo not given),-1.71%,-10.02%
CC(C)CCN(C)C(=O)c1cc(CN2CCC(O)CC2)on1,0.503%,-6.115%
CCc1nccn1C1CCCN(C(=O)c2ccc3c(c2)OCO3)C1 (stereo not given),-2.158%,2.147%
c1c2c(nn1CC1CCOCC1)C(CNC1CCOCC1)OCC2 (stereo not given),-1.83%,13.33%
CC(C)CC(NC(=O)c1ccco1)c1nnc2ccccn12 (stereo not given),1.618%,6.136%
Cc1ncsc1C(=O)NC1CCN(Cc2ccc(C#N)cc2)CC1,1.359%,4.484%
Cc1ccc2[nH]c(C(=O)N3CCCC3Cn3cccn3)cc2c1 (stereo not given),0.3894%,-17.81%
O=C1C[C@@H]2[C@H](CCN2Cc2ccco2)N1c1ccsc1,13.57%,-3.067%
O=C(O)[C@]12CCCN(Cc3ccsc3)C[C@H]1CN(c1ccccn1)C2,8.186%,-3.93%
O=C1NC2(CCN(C(=O)Cc3ccsc3)CC2)CC1c1ccncc1 (stereo not given),-2.756%,-9.122%
Cc1cccc(CNC2CCCc3c2cnn3C)c1 (stereo not given),-1.956%,5.411%
COc1cccc([C@H]2CN(C(=O)c3noc4c3CCCC4)C[C@@H]2N)c1,-0.5789%,-9.545%
CN1CCC(C2CCN(Cc3cccc(-n4cccn4)c3)CC2)C1 (stereo not given),-2.179%,-9.823%
Cc1cnc(CN(C)C2CCN(CCc3cnn(C)c3)C2)o1 (stereo not given),-1.943%,-3.837%
Cn1cc(CNC2CC3(CCN(CC4CC4)CC3)c3ccccc32)cn1 (stereo not given),-0.5394%,2.071%
CN(C(=O)c1ccncc1Cl)c1ccccc1S(C)(=O)=O,5.319%,-1.044%
Cn1ncc(N2CCOC(CCNC(=O)NC(C)(C)C)C2)cc1=O (stereo not given),0%,0.4675%
CNC(=O)NC(=O)CN1CCN(CC2CC2)c2ccccc21,9.475%,-7.2%
Cc1noc(CN(Cc2ccc3c(c2)OCO3)C2CCCC2)n1,-2.426%,2.791%
CS(=O)(=O)N1CCc2c(cccc2NC(=O)NC2CCCC2)C1,0.9413%,4.052%
Cc1ccc(C2CSCCN2C(=O)c2ccsc2)o1 (stereo not given),4.191%,-5.748%
Cc1ccc2c(CC(=O)N(C)CCN(C)C)c(C)[nH]c2c1C,24.87%,-4.098%
Cc1ccc(OCC(=O)Nc2cc(C(=O)O)cc(S(C)(=O)=O)c2)cc1C,-3.922%,-14.36%
CCN1CCN(C(=O)C2CC(=O)N(c3cnn(C(C)C)c3)C2)CC1 (stereo not given),-2.529%,23.08%
CCOc1ncnc2c1CCN(C(=O)c1ccncc1F)CC2,-5.844%,5.117%
COCCN1C(=O)[C@H]2CC[C@@H]1CN(c1ncccn1)C2,10.31%,-4.077%
N#Cc1cccc(OCC(=O)N(Cc2ccsc2)C2CC2)c1,-0.8249%,-6.587%
CC(=O)N1CCc2c(nc(N(C)C)nc2NCCc2cccs2)C1,0.805%,-8.684%
CCOCC(=O)Nc1ncc(I)cc1C,-4.871%,-10.42%

3 of the entries, repeated:

compound	MtTrpRS	ClpP1P2
COc1ccc2c3c1CN(C(C)=O)CC3=CC(C)(C)CO2	-	-11.12%
Cc1nnc(C(C)N2CCCN(Cc3ccc(C#N)cc3)CC2)o1 (stereo not given)	-1.71%	-10.02%
COc1nn(C)c2c1CCCN(C(=O)c1ccccc1)C2	-1.501%	1.226%